For one substance, binding results are on record in patent US20100158904A1 (GLENMARK PHARMACEUTICALS S A, published 2010).

Amino acid sequences for entries named in this document (tags omitted). A change or cut given only in a name is not applied to a line headed by its entry.
UniProt P02452: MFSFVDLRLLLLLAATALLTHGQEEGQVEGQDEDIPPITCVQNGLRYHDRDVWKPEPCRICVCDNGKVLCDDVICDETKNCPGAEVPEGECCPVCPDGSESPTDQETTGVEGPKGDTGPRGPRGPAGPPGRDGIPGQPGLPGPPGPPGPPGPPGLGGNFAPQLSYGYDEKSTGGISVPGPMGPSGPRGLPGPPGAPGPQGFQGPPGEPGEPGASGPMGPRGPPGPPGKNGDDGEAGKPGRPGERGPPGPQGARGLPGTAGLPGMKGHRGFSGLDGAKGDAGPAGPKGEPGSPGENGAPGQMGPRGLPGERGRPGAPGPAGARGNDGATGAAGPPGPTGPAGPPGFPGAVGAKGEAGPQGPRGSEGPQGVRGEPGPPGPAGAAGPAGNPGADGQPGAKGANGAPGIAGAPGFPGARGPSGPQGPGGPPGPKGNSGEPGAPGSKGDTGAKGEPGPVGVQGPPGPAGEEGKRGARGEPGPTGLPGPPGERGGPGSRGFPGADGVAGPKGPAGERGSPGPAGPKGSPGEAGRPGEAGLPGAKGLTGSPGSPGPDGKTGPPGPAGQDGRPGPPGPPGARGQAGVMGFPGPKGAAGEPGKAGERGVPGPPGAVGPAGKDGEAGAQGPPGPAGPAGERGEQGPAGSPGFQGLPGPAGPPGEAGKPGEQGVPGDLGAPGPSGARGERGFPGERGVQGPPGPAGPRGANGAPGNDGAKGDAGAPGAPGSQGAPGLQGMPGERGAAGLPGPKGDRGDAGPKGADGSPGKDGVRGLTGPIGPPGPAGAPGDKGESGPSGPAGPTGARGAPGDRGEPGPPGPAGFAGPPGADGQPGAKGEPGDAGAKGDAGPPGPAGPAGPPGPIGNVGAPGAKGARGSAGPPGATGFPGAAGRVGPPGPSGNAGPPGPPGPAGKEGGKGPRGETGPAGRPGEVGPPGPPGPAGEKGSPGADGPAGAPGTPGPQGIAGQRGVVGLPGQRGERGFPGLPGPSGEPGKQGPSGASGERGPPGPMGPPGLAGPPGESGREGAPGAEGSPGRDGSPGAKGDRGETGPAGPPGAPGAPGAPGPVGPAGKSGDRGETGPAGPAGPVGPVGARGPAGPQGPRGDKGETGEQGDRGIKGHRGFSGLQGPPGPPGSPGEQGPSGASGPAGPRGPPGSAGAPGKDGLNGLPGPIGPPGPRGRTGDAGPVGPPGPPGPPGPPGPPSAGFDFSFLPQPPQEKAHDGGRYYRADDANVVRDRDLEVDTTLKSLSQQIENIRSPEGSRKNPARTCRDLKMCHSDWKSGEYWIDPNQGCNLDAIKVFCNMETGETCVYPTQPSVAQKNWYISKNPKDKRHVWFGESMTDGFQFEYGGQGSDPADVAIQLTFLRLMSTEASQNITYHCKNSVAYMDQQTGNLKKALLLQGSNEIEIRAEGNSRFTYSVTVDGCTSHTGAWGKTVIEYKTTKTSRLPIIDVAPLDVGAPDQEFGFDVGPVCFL
UniProt P08123: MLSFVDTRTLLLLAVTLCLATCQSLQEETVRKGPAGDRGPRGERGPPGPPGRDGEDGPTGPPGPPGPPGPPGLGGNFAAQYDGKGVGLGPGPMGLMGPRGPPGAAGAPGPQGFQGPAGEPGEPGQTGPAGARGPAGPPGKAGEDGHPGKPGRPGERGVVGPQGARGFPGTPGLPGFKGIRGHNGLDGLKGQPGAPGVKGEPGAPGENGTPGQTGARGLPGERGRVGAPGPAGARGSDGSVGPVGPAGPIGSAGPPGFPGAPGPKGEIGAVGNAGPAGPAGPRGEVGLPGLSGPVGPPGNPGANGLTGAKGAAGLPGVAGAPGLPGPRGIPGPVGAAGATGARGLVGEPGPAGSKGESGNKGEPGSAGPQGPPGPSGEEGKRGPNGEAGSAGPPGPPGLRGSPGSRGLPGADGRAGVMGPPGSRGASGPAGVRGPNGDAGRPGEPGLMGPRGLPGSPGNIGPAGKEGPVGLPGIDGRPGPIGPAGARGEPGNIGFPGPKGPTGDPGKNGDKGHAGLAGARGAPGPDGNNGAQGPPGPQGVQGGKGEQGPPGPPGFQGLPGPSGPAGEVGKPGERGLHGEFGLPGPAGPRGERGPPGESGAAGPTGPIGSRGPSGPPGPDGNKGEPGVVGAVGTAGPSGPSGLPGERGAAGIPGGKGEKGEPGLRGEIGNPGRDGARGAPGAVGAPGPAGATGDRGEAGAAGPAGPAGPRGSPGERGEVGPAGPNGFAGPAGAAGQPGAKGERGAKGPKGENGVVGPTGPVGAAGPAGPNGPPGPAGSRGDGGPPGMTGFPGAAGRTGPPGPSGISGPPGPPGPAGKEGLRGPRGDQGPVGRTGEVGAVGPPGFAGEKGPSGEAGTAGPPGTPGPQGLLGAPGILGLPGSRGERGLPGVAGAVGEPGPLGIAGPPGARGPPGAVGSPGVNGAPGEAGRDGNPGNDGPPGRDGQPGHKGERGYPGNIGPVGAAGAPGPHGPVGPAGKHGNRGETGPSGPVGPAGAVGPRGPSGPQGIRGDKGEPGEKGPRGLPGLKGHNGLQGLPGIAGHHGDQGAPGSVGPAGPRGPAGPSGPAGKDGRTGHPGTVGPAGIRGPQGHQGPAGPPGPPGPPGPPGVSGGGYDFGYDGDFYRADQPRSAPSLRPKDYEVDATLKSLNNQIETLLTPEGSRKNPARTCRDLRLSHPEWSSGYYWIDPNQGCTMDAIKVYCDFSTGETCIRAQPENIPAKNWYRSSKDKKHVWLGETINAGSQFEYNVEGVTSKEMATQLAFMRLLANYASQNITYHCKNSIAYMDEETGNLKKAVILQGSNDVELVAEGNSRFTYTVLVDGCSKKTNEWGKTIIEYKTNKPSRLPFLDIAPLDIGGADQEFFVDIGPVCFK
UniProt P17301: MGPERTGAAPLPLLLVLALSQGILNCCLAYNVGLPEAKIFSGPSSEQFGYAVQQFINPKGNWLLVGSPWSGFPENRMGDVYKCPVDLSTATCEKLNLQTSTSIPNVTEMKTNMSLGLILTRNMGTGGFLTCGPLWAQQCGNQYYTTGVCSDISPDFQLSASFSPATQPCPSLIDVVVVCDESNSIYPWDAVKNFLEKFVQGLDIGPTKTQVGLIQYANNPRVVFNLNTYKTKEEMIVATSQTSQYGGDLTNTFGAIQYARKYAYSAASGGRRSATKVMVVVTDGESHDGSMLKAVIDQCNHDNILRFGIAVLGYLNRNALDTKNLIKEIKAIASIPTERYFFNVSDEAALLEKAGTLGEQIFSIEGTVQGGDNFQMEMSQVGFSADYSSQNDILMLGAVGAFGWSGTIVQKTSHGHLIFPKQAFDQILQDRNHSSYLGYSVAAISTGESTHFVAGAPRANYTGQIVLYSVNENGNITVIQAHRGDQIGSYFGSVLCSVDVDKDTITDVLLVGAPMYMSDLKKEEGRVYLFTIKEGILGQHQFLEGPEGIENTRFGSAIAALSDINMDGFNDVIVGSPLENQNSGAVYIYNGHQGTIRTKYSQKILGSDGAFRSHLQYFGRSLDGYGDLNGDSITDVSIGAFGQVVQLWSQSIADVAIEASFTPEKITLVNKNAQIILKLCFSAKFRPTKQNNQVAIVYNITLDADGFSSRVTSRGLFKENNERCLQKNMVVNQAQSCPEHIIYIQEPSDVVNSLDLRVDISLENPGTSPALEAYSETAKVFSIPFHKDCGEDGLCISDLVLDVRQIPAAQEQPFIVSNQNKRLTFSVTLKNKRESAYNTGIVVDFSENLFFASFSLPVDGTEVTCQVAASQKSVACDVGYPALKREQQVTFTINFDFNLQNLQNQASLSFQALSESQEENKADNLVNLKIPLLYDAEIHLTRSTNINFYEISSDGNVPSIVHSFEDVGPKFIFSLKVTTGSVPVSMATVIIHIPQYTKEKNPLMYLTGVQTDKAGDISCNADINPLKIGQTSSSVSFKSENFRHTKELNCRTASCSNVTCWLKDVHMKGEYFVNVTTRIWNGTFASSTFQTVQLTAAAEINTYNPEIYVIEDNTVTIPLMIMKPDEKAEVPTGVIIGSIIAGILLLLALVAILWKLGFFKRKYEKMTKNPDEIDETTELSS

No constants are given. Whether binding was seen depends on the method and setting. Some binding calls cover weakened binding; strength is not graded here.

Assay [1] has as its target T1, human collagen type I (human) (UniProt P02452+P08123). Briefly: adhesion of CFSE-labelled cells to collagen-coated plates.
Assay [2] has as its target T1, human collagen type I (human). Briefly: adhesion of CFSE-labelled HT-1080 cells to collagen-coated plates.

As to “human α2β1 integrin (VLA-2) expressed on human cancer cell lines (from UniProt P17301 30-1181; P05556 21-798) (receptor)”, the binding entry in assay [1] and in assay [2] was “binds” each time.
